Some of these results come from one statement about several compounds together.
B1: Purα: sequence-specific single-stranded DNA-binding protein; GST-tagged, purified from bacteria in the EMSA (protein)
chain: MADRDSGSEQGGAALGSGGSLGHPGSGSGSGGGGGGGGGGGGSGGGGGGAPGGLQHETQELASKRVDIQNKRFYLDVKQNAKGRFLKIAEVGAGGNKSRLTLSMSVAVEFRDYLGDFIEHYAQLGPSQPPDLAQAQDEPRRALKSEFLVRENRKYYMDLKENQRGRFLRIRQTVNRGPGLGSTQGQTIALPAQGLIEFRDALAKLIDDYGVEEEPAELPEGTSLTVDNKRFFFDVGSNKYGVFMRVSEVKPTYRNSITVPYKVWAKFGHTFCKYSEEMKKIQEKQREKRAACEQLHQQQQQQQEETAAATLLLQGEEEGEED
modifications: left off: a dimerising Fc or GST
notes: GST-tagged, purified from bacteria in the EMSA
B2: Purβ: Pur family protein, GST-tagged, purified from bacterial lysate (protein, UniProt Q96QR8 2-312, looked up)
Transcriptional regulator …: ADGDSGSERGGGGGPCGFQPASRGGGEQETQELASKRLDIQNKRFYLDVKQNAKGRFLKIAEVGAGGSKSRLTLSMAVAAEFRDSLGDFIEHYAQLGPSSPEQLAAGAEEGGGPRRALKSEFLVRENRKYYLDLKENQRGRFLRIRQTVNRGGGGFGAGPGPGGLQSGQTIALPAQGLIEFRDALAKLIDDYGGEDDELAGGPGGGAGGPGGGLYGELPEGTSITVDSKRFFFDVGCNKYGVFLRVSEVKPSYRNAITVPFKAWGKFGGAFCRYADEMKEIQERQRDKLYERRGGGSGGGEESEGEEVDED
modifications: GST tag
notes: Pur family protein, GST-tagged, purified from bacterial lysate

Tested on: FXS ssDNA (G-rich trinucleotide DNA repeats at FMR1)
Test: Electrophoretic mobility shift assay with FXS ssDNA
Type: binding
Conditions: ssDNA FXS increased up to 50 ng
Source text: A GE Microspin GST purification module was used to purify GST-tagged Purα and Purβ from bacterial lysate. Polyacrylamide gel electrophoresis with SDS-Page gels and molecular markers were used to verify that GST, Purα, and Purβ were expressed and purified. Expressed proteins were detected using antibodies against Purα and Purβ, including monoclonal mouse anti-Pur antibody developed in Johnson laboratory (clone 10B12) and polyclonal antibody against Purβ (Abcam). Polyacrylamide gel electrophoresis with TBE buffer was used for gel-mobility shift assay. Infrared-labeled oligonucleotides representing G-rich trinucleotide DNA repeats at FMR1 in patients with Fragile X Syndrome (FXS) were custom ordered and are referred to herein as FXS ssDNA. Infrared-labeled oligonucleotide substrates in agarose and polyacrylamide gels were detected through the use of the Odyssey (LICOR) instrumentation and software. […] When Purα and Purβ are combined (FIG. 17), by increasing the amount of Purβ, the DNA is shifted more to the top of the gel. Therefore, there is more binding of the proteins to the DNA. […] In FIG. 19, TZIP enhances the mobility shift of ssDNA FXS in the presence of Purα.

Molecule	amount of protein needed to cause a complete shift in mobility
B1	more than 10 ng
B2	more than 10 ng

— patent US9896489B2, “Family of synthetic polynucleotide-binding peptides and uses thereof” (Eastern Virginia Medical School, priority 2012, dated 2018)
